In PubChem BioAssay AID2685 (National Center for Advancing Translational Sciences (NCATS), 2010) one finds AC50 and cell number change data, which are given here for 41 compounds.

This is one part of the list. Further columns of the screen follow, without active or inactive calls. Compounds called inactive in the main read-out are mostly missing here. The note in brackets gives the kind of curve behind each potency; many fits are weak.

The nature of this assay: qHTS Assay for Lipid Storage Modulators in Drosophila S3 Cells.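 For cell number change: cells counted by Cell Tracker Red CMTPX staining in the red channel.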 The conditions noted are these: BODIPY lipid droplet fluorescence, 18-24 h; for cell number change: measured here: cell count max response, cells fed with added oleic acid. The method, boiled down:
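Drosophila S3 cells loaded with oleic acid (400 uM, as added) and compounds at several concentrations; lipid droplets imaged by 488-nm laser-scanning cytometry, 500–530 nm intensity and object ratio to cell channel. Percent activity normalized to 20 uM Triacsin C.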
(In general: Quantitative high-throughput screening tests each substance at several concentrations.)

Setting [1] is: measured here: cell number channel AC50, cells fed with added oleic acid.
Where [2] appears, read: measured here: lipid fluorescence (Fed channel) AC50, cells fed with added oleic acid.

In general, AC50 refers to the midpoint of the concentration-response curve, whichever way the signal moves. For `COc1ccccc1NC(=O)Oc1ccc(C(C)=O)cc1`, the concentration at half-maximal activity (AC50) under setting [1] was 0.461 µM [falling, single point]. `Nc1cc(Cl)c2nonc2c1[N+](=O)[O-]`: the cell number change is -74.4%. Also, the half-maximal activity concentration (AC50) under setting [1] is 6.51 µM [falling, partial curve]. For the same compound, the AC50 under setting [2] is 4.61 µM [falling, full curve]. Take `O=[N+]([O-])c1ccc(NC2CCCC2)c2ccncc12`: the cell number change was found to be 38.8%. Moreover, the AC50 under setting [1] is 14.6 µM [rising, partial curve, poor fit]. In the case of `Cc1ccc(CN2CCN(C)CC2)c(C)c1`, the cell number change was -44.5%. In addition, the concentration at half-maximal activity (AC50) under setting [1] was 13 µM [falling, partial curve]. Under setting [2], the half-maximal activity concentration (AC50) is 16.4 µM [falling, single point].

In the case of `CN1CCc2cccc(Cl)c2CC1`, the cell number change was -39.4%. Moreover, under setting [1], the concentration at half-maximal activity (AC50) is 32.6 µM [falling, single point].

With `COc1ccc(CNCCc2ccc3c(c2)OCO3)c(OC)c1OC`, the cell number change is 9.72%.

In the case of `COC(=O)C1=C(c2ccc(F)cc2F)C[C@@H]2CC[C@H]1N2C(=O)NC1CC1`, the cell number change is 0.12%. The half-maximal activity concentration (AC50) under setting [2] was 5.8 µM [rising, partial curve]. On to `COc1cc(C=C2C(=O)NC(=O)NC2=O)ccc1OS(=O)(=O)c1ccccc1[N+](=O)[O-]`, for which the cell number change is -7.62%.

Turning to `C=CCn1c(O)c(C(C)=NC(C)c2ccccc2)c(=O)[nH]c1=O` (stereo not given), the cell number change was found to be 21.3%. The AC50 under setting [2] was 29.1 µM [rising, single point]. Regarding `COCCNP(=O)(c1ccccc1)c1nc2ccccc2s1` (stereo not given), the cell number change turned out to be 18.4%. For the compound `C[N+]1(C)[C@@H]2CC(OC(=O)[C@H](CO)c3ccccc3)C[C@H]1[C@@H]1O[C@@H]12` (stereo not given in full), the cell number change was found to be 37.5%. The AC50 under setting [1] was 23.1 µM [rising, single point]. Under setting [2], the half-maximal activity concentration (AC50) is 29.1 µM [falling, single point].

Turning to `CCCCOP(=O)(OCCCC)C(Nc1ccc(C(=O)OCC)cc1)c1ccncc1` (stereo not given), the AC50 under setting [1] is 6.51 µM [falling, full curve, poor fit].

`CCCC[N+]12CCC(CC1)C(C(=O)c1cccs1)C2` (stereo not given): the cell number change is -13.4%. `CC(C)n1cc(C(=O)N(CC(=O)NC2CCCC2)Cc2ccccc2)cn1`: the cell number change was -2.93%. The AC50 under setting [2] is 0.411 µM [falling, full curve, poor fit]. With `Cc1cc(=O)oc2cc(OCC(=O)N3C[C@H]4C[C@@H](C3)c3cccc(=O)n3C4)ccc12`, the cell number change stood at 6.15%. Further, under setting [2], the AC50 was 2.59 µM [rising, partial curve, poor fit]. On to `NP(=O)(OCCCc1ccccc1)Oc1ccccc1Cl` (stereo not given), for which the cell number change is 18.3%. As for `COc1ccccc1OCCn1c(=O)oc2ccc(C)cc21`, the half-maximal activity concentration (AC50) under setting [1] is 11.6 µM [rising, partial curve, poor fit]. For `O=[N+]([O-])c1ccc(-c2ccccc2)c([As](=O)(O)O)c1`, the cell number change is -49.2%. Under setting [1], the AC50 was 29.1 µM [falling, single point]. Besides, under setting [2], the AC50 was 25.9 µM [falling, partial curve, poor fit].

For the compound `COc1cccc(OP(=O)(Nc2ccccc2)Oc2cccc(OC)c2)c1`, the cell number change is -12%. Besides, the half-maximal activity concentration (AC50) under setting [2] is 1.46 µM [rising, single point]. Regarding `CCCCCCn1c(O)c(C=NCCN2CCCCC2)c(=O)[nH]c1=O`, the concentration at half-maximal activity (AC50) is, setting by setting: under setting [1], 0.0058 µM [falling, full curve, poor fit]; under setting [2], 0.00461 µM [falling, full curve, poor fit].

For the compound `O=C(c1ccco1)c1cn(Cc2ccc(Cl)cc2)c2ccccc12`, the cell number change was -15.1%. On to `COc1cccc(C2CCN(CC(=O)Nc3cc(Cl)ccc3OC)CC2O)c1` (stereo not given), for which the cell number change was determined as 20.2%. For the same compound, under setting [1], the AC50 was 3.26 µM [rising, partial curve]. Consider `O=C(COc1ccc(S(=O)(=O)N2CCOCC2)cc1)N1CCN(Cc2ccc3c(c2)OCO3)CC1`, for which the cell number change was found to be 2.1%. As to `CCC(=NCC1CCCO1)c1c(O)n(-c2ccccc2)c(=O)[nH]c1=O` (stereo not given), the cell number change was -9.73%. Further, the AC50 under setting [2] is 5.8 µM [falling, partial curve]. Consider `Cn1c(O)c(N=Nc2cccc(S(=O)(=O)N3CCOCC3)c2)c(=O)n(C)c1=O`, for which the cell number change turned out to be 81.5%. Also, the AC50 under setting [1] was 18.4 µM [rising, single point]. For `CCc1ccccc1NC(=O)CNCc1ccccc1`, the cell number change is -23.1%. In addition, under setting [2], the AC50 was 0.103 µM [falling, full curve, poor fit].

With `O=C1NC(=S)N(c2ccc(F)cc2)C(=O)/C1=C\c1ccoc1`, the cell number change is -21.5%.

For the compound `COC(=O)N1C(c2ccccc2)C1c1ccccc1` (stereo not given), the cell number change is 4.06%. Also, the AC50 under setting [2] was 29.1 µM [rising, single point]. `C=CCn1c(O)c(/C=N/NC(=O)c2ccncc2)c(=O)[nH]c1=O`: the cell number change is -9.18%. For the same compound, the AC50 under setting [1] was 6.51 µM [rising, single point]. Turning to `c1ccc2c(CN3CCOCC3)c[nH]c2c1`, the cell number change is -11.1%. The concentration at half-maximal activity (AC50) under setting [2] was 18.4 µM [rising, single point]. Regarding `O=C(COC(=O)Cc1ccccc1)NC(=O)NC1CCCCC1`, the cell number change turned out to be 8.5%. Consider `CCC(=NCc1ccco1)c1c(O)n(-c2ccc(C)cc2)c(=O)[nH]c1=O`, for which the cell number change is -12.5%. Besides, under setting [1], the half-maximal activity concentration (AC50) is 0.259 µM [rising, partial curve, poor fit]. In addition, the concentration at half-maximal activity (AC50) under setting [2] was 2.59 µM [rising, partial curve].

For `COC(=O)C1=C(c2ccc(F)cc2OCc2ccccc2)C[C@@H]2CC[C@H]1N2C(=O)N1CCC(C)CC1`, the cell number change is -10.1%. On to `Oc1c(Br)c(Br)c(Br)c(Br)c1Br`, for which the cell number change turned out to be 11.3%. Further, the AC50 under setting [1] is 0.116 µM [falling, single point]. Regarding `FC(F)(F)Oc1ccc(C2NCc3ccccc3-n3cccc32)cc1` (stereo not given), the cell number change was -41.5%. Besides, the half-maximal activity concentration (AC50) under setting [1] was 20.6 µM [falling, single point]. For the same compound, the AC50 under setting [2] is 20.6 µM [falling, single point]. Turning to `Cc1ccc(N2C(=O)NC(=O)/C(=C\C=C\c3ccco3)C2=O)cc1`, the cell number change is -38.9%. The half-maximal activity concentration (AC50) under setting [1] is 18.4 µM [falling, single point]. In addition, the concentration at half-maximal activity (AC50) under setting [2] is 29.1 µM [falling, single point].

Regarding `CCNc1nc(Cl)nc(NC(C)C)n1`, the cell number change worked out at 11.4%. Further, under setting [2], the half-maximal activity concentration (AC50) was 6.51 µM [falling, single point]. In the case of `O=c1[nH]c(O)c(C=Nc2ccccc2[N+](=O)[O-])c(=O)[nH]1`, the cell number change was determined as 14%. Same read-out and setting: to `CCOc1ccccc1N1C(=O)CC(=O)NC1=O` belongs -1.79%. For the compound `CCS(=O)(=O)N1CCC(C(=O)N2CCC3(CC2)OCCO3)CC1`, the cell number change was -71.2%. In addition, under setting [1], the AC50 is 20.6 µM [falling, partial curve]. The AC50 under setting [2] is 2.06 µM [falling, single point]. With `CCC1(CCc2ccncc2)C(=O)NC(=O)NC1=O`, the cell number change is -1.19%. Besides, under setting [2], the half-maximal activity concentration (AC50) was 0.146 µM [falling, full curve].
